Test results from publication doi:10.1101/2019.12.19.883322.
Results are given in words; binding and its absence hold for the method and conditions named. Binding seen in cells or lysates may run through a third protein. Some binding calls cover weakened binding; strength is not graded here.

Target: T1, receptor interacting protein kinase 1 (RIPK1) (mouse (endogenous in ventricular myocardium)), Q60855
T1 chain: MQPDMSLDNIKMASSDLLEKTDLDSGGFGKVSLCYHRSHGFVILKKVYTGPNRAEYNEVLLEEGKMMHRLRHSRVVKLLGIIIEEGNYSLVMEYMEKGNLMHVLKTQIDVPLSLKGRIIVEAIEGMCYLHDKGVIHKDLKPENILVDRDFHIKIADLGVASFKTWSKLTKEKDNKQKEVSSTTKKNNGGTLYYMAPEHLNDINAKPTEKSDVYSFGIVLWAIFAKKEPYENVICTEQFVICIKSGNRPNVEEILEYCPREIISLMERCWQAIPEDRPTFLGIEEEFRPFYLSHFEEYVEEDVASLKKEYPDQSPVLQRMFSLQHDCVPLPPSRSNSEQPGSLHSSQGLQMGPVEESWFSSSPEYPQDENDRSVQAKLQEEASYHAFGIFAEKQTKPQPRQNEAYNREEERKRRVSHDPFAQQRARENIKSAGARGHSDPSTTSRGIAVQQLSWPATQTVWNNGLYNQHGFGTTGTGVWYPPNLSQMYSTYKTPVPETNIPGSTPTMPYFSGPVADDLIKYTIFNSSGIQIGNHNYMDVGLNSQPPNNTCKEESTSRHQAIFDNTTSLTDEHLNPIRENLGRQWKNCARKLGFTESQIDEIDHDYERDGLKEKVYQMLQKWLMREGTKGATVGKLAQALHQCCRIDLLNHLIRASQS
Experiment: co-IP
Settings: remark: other sources report otherwise

- binding: binds
B1: RIPK3, Q9QZL0 1-486 (protein)
chain: MSSVKLWPTGASAVPLVSREELKKLEFVGKGGFGVVFRAHHRTWNHDVAVKIVNSKKISWEVKAMVNLRNENVLLLLGVTEDLQWDFVSGQALVTRFMENGSLAGLLQPECPRPWPLLCRLLQEVVLGMCYLHSLNPPLLHRDLKPSNILLDPELHAKLADFGLSTFQGGSQSGSGSGSGSRDSGGTLAYLDPELLFDVNLKASKASDVYSFGILVWAVLAGREAELVDKTSLIRETVCDRQSRPPLTELPPGSPETPGLEKLKELMIHCWGSQSENRPSFQDCEPKTNEVYNLVKDKVDAAVSEVKHYLSQHRSSGRNLSAREPSQRGTEMDCPRETMVSKMLDRLHLEEPSGPVPGKCPERQAQDTSVGPATPARTSSDPVAGTPQIPHTLPFRGTTPGPVFTETPGPHPQRNQGDGRHGTPWYPWTPPNPMTGPPALVFNNCSEVQIGNYNSLVAPPRTTASSSAKYDQAQFGRGRGWQPFHK
